# Library screening results

Source: ChEMBL document CHEMBL3988442, “University of Dundee, Small-Polar-MMV Screening Library” (2021).

The filed quantity is “Percent Effect” (%).
The controls that fix the scale are not given in the record; negative values are as filed.
This is an unselected part of the compounds tested.

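Whole-cell assay for inhibitors of Mycobacterium tuberculosis growth, labelled Cornell in the record; the read-out is not stated. The concentration is filed as 10 mM, unlikely as a test dose, so the dose is not known. The record gives no direction; compounds strong in two other growth screens of this library score well above the rest, so higher reads as stronger inhibition. About 53,000 compounds were tested under these conditions; 1.7% (about 900) showed 50% or more at least once.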

For O=C1CN(C(=O)OCc2ccccc2)CC(O)CN1Cc1ccco1 (stereo not given) the result was -19.25%.
For [H][C@@]12CN(C(=O)c3cccn3C)C[C@]1([H])C(=O)N(CCN1CCCC1)C2 the result was 7.708%.
For COCCOc1ccnc(-c2noc([C@@H]3CCCN3CC(C)C)n2)c1 the result was -12.84%.
For CN(C(=O)c1ccncc1Cl)c1ccccc1S(C)(=O)=O the result was -10.84%.
For CCC(C)C(=O)NCc1cccc(N2CCCCC2=O)c1 (stereo not given) the result was -46.97%.
For COc1ccc2c(c1)C(C(=O)NCCN1CCNC1=O)CC(=O)N2 (stereo not given) the result was -34.18%.
For CC(C)Cc1ncc2c(n1)CN(C(=O)c1ccc(Cn3ccnc3)o1)C2 the result was 20.25%.
For Cc1cccc2c1CCN(c1cc(N3CCCC3CO)ncn1)C2 (stereo not given) the result was 67.12%.
For CNC(=O)C1(CCCc2ccncc2)CCN1.O=C(O)C(F)(F)F (stereo not given) the result was 1.777%.
For c1coc(-c2nc(CNC3CCC4(CCNCC4)CC3)no2)c1 the result was 15.49%.
For Cc1nc(CN2CCc3nn(C(C)C)c(=O)cc3C2)oc1C the result was 28.16%.
For CN(CC1(CO)CCCC1)[C@@H]1c2ccccc2C2(CCNCC2)[C@H]1O the result was 15.2%.
For Cc1ccc2[nH]c(C(=O)N3CCC4(CC3)C(=O)NCCN4C)nc2c1 the result was -57.23%.
For CCOCCn1c(=O)n(CCC(C)C)c2ncc(C(=O)O)cc21 the result was -13.27%.
For O=C(O)C(F)(F)F.[H][C@]12CN(Cc3csc(C)n3)C(=O)[C@@]1([H])CN(c1ncccn1)C2 the result was 24.48%.
For Cc1nc(C)n(CC2CN(CCOc3cccc(C#N)c3)CCO2)n1 (stereo not given) the result was -20.51%.
For COc1ccc(CN(C)[C@@H]2CN(C(=O)c3cccnc3)C[C@H]2O)cc1 the result was 29.94%.
For O=C(NCCc1c[nH]cn1)c1n[nH]c2c1CCC2 the result was 44.16%.
For CN(C)CCCNC(=O)c1nnsc1-c1ccccc1 the result was -4.707%.
For O=C(c1cnns1)N1CCN(c2ccc(F)cc2Cl)CC1 the result was 29.72%.
For O=C(C1CCOCC1)N1CCOC(CC2CCCCC2)C1 (stereo not given) the result was 2.403%.
For CC(C)N1CCC(C(=O)N(C)C(C)c2ccon2)CC1 (stereo not given) the result was -0.255%.
For CC[C@H](C)Nc1nccc(-c2cnc3sc(C)cn3c2=O)n1 the result was 2.618%.
For O=C(O)C(F)(F)F.[H][C@@]12CN(CC(C)C)C[C@]1([H])C(=O)N(CC)C21CCN(S(C)(=O)=O)CC1 the result was 9.176%.
For Cc1nc2n(n1)CC(NCc1ccccc1OCC(=O)N(C)C)CC2 (stereo not given) the result was 5.238%.
For O=C(O)C(F)(F)F.[H][C@@]12CN(Cc3ccccn3)C[C@]1([H])CN(c1cc(OC)ncn1)C2 the result was 8.566%.
For CCOCC1CC2(CCN(C(=O)c3ccc4ccccc4n3)CC2)CO1.O=C(O)C(F)(F)F (stereo not given) the result was 7.117%.
For COc1cccc2c(=O)n(C3CCNCC3)cnc12 the result was 23.86%.
For CCn1nc(C)c(NC(=O)CN(C)C(C)c2ccon2)c1C (stereo not given) the result was 17.64%.
For CCc1nsc(NC2CC(=O)N(C3CC3)C2)n1 (stereo not given) the result was -3.027%.

Some entries from above, unchanged:

COc1ccc2c(c1)C(C(=O)NCCN1CCNC1=O)CC(=O)N2 (stereo not given) gave -34.18%.
COc1cccc2c(=O)n(C3CCNCC3)cnc12 gave 23.86%.